# According to the supplement of paper PMC6411743:
# By UniProt entry, the sequences of proteins in these tests, tags left out. Where a name states a change or a piece, a line headed by the entry shows the natural chain unless it says otherwise.
# UniProt Q8WU10: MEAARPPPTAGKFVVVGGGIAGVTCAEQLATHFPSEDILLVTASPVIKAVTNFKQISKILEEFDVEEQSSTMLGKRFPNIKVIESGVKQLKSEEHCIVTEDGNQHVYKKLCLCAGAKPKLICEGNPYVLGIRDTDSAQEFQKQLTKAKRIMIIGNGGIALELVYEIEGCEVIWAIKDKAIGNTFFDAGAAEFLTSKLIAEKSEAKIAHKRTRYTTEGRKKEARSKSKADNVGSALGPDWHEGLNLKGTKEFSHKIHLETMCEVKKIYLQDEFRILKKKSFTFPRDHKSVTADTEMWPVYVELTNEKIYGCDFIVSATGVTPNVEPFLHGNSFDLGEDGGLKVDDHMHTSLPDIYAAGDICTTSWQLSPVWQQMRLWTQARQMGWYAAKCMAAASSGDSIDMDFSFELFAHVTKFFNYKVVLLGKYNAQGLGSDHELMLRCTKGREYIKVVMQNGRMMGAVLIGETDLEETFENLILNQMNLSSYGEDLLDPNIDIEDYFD
# UniProt Q92538, whole entry: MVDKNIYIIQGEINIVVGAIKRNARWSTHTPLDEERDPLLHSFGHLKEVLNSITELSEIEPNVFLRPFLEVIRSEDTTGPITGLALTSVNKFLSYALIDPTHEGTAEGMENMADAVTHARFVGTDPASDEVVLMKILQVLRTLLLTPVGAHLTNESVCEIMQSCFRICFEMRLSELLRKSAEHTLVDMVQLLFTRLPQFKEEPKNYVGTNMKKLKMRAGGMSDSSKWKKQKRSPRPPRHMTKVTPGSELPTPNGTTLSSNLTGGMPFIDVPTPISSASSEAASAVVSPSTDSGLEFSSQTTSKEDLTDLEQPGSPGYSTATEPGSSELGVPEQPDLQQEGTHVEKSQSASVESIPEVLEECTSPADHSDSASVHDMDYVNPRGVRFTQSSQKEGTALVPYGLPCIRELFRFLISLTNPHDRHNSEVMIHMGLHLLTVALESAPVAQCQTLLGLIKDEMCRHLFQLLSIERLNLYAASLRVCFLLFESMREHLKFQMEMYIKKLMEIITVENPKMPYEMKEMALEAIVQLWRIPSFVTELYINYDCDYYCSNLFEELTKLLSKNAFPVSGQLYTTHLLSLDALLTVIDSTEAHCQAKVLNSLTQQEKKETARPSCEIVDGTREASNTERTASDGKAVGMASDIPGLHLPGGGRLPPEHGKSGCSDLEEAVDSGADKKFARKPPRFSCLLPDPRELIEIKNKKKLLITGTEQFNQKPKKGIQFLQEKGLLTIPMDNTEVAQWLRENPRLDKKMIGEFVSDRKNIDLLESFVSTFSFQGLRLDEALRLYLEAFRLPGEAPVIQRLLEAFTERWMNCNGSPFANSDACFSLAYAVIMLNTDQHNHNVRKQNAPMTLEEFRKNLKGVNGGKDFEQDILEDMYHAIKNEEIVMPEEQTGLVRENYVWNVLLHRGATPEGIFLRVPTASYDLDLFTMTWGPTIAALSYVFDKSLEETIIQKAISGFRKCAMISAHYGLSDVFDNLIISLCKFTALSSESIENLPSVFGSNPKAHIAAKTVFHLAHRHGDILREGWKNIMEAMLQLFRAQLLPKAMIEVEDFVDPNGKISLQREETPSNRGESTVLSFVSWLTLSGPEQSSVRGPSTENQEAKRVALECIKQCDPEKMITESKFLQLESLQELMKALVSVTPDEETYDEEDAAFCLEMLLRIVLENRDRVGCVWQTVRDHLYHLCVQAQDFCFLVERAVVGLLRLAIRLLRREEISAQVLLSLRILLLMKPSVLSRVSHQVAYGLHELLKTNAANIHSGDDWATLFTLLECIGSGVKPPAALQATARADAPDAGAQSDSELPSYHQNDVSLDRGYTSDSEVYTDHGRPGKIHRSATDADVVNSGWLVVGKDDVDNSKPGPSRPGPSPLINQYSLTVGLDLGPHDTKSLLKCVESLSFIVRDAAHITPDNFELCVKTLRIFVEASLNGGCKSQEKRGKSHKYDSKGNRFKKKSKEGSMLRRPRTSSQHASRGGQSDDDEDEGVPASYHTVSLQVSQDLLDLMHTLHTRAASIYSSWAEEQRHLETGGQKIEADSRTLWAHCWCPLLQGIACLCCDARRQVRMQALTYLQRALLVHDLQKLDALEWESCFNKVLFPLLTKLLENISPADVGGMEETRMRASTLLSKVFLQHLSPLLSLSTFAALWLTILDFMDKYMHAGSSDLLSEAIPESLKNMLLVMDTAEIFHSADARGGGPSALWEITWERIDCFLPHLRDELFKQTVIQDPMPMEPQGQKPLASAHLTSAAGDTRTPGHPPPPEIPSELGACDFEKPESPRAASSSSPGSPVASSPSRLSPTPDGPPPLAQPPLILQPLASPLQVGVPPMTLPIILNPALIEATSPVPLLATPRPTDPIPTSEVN
# UniProt Q8TA86: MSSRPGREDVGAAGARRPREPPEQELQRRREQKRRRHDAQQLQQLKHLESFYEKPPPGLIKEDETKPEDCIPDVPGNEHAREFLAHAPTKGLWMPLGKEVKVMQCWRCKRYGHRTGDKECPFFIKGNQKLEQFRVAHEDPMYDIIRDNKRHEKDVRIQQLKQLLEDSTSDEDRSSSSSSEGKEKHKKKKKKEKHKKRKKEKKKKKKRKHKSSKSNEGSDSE
# UniProt Q8TDH9: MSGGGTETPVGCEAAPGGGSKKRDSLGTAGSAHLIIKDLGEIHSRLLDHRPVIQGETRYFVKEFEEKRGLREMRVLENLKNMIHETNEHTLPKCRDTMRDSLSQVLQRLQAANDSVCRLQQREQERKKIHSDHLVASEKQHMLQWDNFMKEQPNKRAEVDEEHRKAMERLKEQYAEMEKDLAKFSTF
# UniProt Q8TCJ2: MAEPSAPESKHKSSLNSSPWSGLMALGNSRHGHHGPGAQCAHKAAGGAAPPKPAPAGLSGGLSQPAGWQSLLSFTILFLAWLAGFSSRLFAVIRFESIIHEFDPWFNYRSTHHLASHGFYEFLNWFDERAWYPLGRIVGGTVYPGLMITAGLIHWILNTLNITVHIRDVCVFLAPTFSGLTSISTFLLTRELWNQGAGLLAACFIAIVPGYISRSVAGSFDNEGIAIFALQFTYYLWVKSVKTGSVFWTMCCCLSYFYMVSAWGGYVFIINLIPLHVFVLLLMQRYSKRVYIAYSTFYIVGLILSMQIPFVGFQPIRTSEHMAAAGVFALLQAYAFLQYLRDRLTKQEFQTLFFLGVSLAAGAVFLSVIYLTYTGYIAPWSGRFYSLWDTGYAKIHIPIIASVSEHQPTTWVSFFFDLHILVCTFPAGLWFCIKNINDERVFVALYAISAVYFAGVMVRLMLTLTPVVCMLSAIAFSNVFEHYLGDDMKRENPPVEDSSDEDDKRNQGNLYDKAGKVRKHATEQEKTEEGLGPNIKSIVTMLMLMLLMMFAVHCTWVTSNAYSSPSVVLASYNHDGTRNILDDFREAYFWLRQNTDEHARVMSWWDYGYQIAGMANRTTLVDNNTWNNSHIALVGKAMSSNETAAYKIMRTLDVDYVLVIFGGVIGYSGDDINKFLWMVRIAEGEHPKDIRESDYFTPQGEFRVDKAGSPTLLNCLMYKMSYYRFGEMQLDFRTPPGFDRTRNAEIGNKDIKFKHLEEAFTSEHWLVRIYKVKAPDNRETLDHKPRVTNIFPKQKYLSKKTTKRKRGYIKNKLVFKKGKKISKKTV
# UniProt Q8TDR0: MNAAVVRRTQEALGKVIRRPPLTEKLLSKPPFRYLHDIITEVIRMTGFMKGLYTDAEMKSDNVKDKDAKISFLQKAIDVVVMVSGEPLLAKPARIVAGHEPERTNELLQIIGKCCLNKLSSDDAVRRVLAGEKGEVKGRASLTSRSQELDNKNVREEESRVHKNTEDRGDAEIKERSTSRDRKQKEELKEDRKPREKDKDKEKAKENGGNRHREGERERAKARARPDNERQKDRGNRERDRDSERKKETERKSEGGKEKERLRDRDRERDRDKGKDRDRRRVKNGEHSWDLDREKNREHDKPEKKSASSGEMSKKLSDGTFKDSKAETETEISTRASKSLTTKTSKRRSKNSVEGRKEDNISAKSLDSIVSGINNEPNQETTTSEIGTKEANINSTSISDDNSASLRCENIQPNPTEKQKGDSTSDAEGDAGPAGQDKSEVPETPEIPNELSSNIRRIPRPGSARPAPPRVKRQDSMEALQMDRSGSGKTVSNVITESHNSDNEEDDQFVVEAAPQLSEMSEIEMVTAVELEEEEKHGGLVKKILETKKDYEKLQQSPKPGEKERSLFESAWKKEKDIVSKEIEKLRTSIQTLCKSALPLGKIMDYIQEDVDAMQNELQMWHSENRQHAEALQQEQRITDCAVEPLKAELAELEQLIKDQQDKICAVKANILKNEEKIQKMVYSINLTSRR
# UniProt Q8TDY2, whole entry: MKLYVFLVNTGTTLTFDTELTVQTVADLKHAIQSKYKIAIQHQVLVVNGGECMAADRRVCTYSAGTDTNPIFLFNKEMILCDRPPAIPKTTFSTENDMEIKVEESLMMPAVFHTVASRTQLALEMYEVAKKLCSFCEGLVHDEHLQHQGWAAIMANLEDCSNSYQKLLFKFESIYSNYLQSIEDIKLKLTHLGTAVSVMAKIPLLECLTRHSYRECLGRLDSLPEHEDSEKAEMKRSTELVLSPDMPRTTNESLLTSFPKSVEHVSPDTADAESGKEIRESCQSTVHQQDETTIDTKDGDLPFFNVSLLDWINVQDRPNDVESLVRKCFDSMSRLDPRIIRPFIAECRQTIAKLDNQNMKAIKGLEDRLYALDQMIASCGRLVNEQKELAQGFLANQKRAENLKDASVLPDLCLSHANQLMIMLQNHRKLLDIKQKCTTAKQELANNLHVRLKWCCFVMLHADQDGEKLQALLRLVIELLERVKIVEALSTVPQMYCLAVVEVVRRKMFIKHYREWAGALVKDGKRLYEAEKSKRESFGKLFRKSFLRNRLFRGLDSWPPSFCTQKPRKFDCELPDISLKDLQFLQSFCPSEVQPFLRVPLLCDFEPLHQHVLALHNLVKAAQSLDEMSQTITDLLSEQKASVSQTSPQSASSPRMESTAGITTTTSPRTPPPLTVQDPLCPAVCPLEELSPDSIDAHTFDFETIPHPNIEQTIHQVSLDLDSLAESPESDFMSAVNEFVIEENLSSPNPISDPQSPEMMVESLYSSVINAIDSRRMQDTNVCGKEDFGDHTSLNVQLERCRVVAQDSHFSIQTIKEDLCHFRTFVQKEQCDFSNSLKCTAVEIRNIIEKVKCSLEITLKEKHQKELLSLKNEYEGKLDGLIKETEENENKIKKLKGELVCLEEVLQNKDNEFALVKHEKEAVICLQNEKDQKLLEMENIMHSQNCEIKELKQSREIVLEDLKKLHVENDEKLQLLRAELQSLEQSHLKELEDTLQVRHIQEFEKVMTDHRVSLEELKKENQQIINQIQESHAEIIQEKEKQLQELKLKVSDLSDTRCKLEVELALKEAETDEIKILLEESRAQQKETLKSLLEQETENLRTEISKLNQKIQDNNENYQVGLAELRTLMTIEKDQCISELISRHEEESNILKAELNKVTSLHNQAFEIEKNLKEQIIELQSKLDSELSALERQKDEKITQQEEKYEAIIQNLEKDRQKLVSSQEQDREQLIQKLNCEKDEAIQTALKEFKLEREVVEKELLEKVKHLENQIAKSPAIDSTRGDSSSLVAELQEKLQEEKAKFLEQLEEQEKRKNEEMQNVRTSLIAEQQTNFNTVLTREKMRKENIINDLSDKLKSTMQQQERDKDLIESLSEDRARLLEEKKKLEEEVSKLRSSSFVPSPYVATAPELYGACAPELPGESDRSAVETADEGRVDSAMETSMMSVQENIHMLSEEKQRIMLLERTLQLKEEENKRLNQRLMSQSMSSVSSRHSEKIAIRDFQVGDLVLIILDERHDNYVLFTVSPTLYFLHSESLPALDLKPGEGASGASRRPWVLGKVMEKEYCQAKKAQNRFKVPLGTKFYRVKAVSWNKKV
# UniProt Q92804: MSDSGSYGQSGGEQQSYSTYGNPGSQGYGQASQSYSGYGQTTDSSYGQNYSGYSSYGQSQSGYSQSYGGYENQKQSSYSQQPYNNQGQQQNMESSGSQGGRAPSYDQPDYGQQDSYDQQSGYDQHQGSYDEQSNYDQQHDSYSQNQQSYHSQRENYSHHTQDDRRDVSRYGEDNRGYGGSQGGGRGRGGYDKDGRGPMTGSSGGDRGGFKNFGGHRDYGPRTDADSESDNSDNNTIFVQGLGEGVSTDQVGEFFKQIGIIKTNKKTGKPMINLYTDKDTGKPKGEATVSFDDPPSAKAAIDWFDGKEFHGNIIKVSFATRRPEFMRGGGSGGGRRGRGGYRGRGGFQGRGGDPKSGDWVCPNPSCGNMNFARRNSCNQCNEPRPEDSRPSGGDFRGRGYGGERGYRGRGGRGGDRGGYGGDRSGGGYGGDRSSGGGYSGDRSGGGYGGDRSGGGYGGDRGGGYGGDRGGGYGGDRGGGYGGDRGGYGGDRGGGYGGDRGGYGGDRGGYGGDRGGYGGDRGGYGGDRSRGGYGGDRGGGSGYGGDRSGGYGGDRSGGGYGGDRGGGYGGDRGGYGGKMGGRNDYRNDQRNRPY
# ± gives the standard deviation of the averaged measurements. Only a part is listed here, and it is no random draw. Most values lie at the level of the controls, where differences are scatter.
# Compound: Nc1ncnc2c1ncn2[C@@H]1O[C@H](COP(=O)(O)OP(=O)(O)NP(=O)(O)O)[C@@H](O)[C@H]1O [adenylyl imidodiphosphate]
# Experiment: NP40-soluble protein abundance relative to vehicle (solubility fold change) (ratio); higher = more soluble protein in presence of AMP-PNP
# In short: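 Values are fold changes against the detergent-processed vehicle, based on vsn-normalised intensities. Jurkat crude lysate was treated at eight concentrations from 0.1 to 10 mM (10 min at room temperature, then 3 min at 37 °C), solubilised with 0.8% NP40 and benzonase, ultracentrifuged and analysed by TMT-labelled LC-MS/MS over three independent experiments.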
Target,NP40-soluble protein abundance (concentration: 0.1mM),NP40-soluble protein abundance (concentration: 0.5mM)
UniProt Q8WWK9 and related entries,0.946 ± 0.019,0.967 ± 0.021
UniProt Q8NE86 and related entries,1.02 ± 0.024,0.977 ± 0.036
NUP37 (UniProt Q8NFH4),1.02 ± 0.046,1.01 ± 0.063
UniProt Q8WUK0 and related entries,0.966 ± 0.031,0.9272 ± 0.0034
UniProt Q8WU10 and related entries,0.998 ± 0.03,0.966 ± 0.055
NUDT8 (UniProt Q8WV74),1.01 ± 0.013,1.03 ± 0.031
UniProt Q92538 and related entries,0.987 ± 0.032,0.974 ± 0.045
PHIP (UniProt Q8WWQ0),0.987 ± 0.014,1.023 ± 0.0083
PPTC7 (UniProt Q8NI37),1.011 ± 0.0077,1.008 ± 0.00073
UniProt Q8TA86 and related entries,1.02 ± 0.026,1.03 ± 0.062
UniProt Q8TDH9,1.02 ± 0.031,1.04 ± 0.049
STT3B (UniProt Q8TCJ2),1.02 ± 0.044,1.01 ± 0.051
BRI3BP (UniProt Q8WY22),0.9961 ± 0.0066,1.04 ± 0.034
UniProt Q8TCC3 and related entries,1.07 ± 0.047,1.08 ± 0.049
PPP1R13L (UniProt Q8WUF5),1.01 ± 0.011,1.011 ± 0.0079
LPGAT1 (UniProt Q92604),0.983 ± 0.054,0.9509 ± 0.0093
SNRNP27 (UniProt Q8WVK2),0.9976 ± 0.0019,0.991 ± 0.037
PI4K2B (UniProt Q8TCG2),0.991 ± 0.011,0.984 ± 0.02
GEMIN5 (UniProt Q8TEQ6),1.01 ± 0.019,0.983 ± 0.061
GCDH (UniProt Q92947),0.9896 ± 0.0028,0.972 ± 0.011

Target,NP40-soluble protein abundance (concentration: 0.1mM),NP40-soluble protein abundance (concentration: 0.5mM)
TTL (UniProt Q8NG68),1.04 ± 0.015,1.05 ± 0.041
UniProt Q8NDX1 and related entries,1.004 ± 0.0084,1.02 ± 0.063
JARID2 (UniProt Q92833),0.999 ± 0.018,0.999 ± 0.024
ANKS1A (UniProt Q92625),1.02 ± 0.032,0.983 ± 0.025
UniProt Q8TDR0 and related entries,1.03 ± 0.038,1.01 ± 0.034
HJURP (UniProt Q8NCD3),0.967 ± 0.0073,0.975 ± 0.041
UniProt Q8NDX5 and related entries,1.01 ± 0.02,1.03 ± 0.027
MAML1 (UniProt Q92585),0.973 ± 0.015,0.973 ± 0.045
SRFBP1 (UniProt Q8NEF9),0.983 ± 0.016,1.03 ± 0.085
UniProt Q8TEB1 and related entries,1 ± 0.064,1.01 ± 0.022
ZNRF2 (UniProt Q8NHG8),0.979 ± 0.039,0.9891 ± 0.009
UniProt Q92698 and related entries,1 ± 0.039,0.987 ± 0.053
UBA3 (UniProt Q8TBC4),1.01 ± 0.026,0.9941 ± 0.0065
FIG4 (UniProt Q92562),0.979 ± 0.018,0.9798 ± 0.0084
DHX38 (UniProt Q92620),0.998 ± 0.047,0.969 ± 0.037
LEMD2 (UniProt Q8NC56),1.052 ± 0.0011,1.05 ± 0.038
UniProt Q8TF01,1.01 ± 0.016,1.07 ± 0.054
UniProt Q8WUQ7 and related entries,0.978 ± 0.026,1.02 ± 0.014
TDRD7 (UniProt Q8NHU6),0.977 ± 0.012,0.996 ± 0.029
CNNM3 (UniProt Q8NE01),0.997 ± 0.032,0.993 ± 0.045

# Random excerpt: three records from the list
Target,NP40-soluble protein abundance (concentration: 0.1mM),NP40-soluble protein abundance (concentration: 0.5mM)
STT3B (UniProt Q8TCJ2),1.02 ± 0.044,1.01 ± 0.051
UniProt Q8TCC3 and related entries,1.07 ± 0.047,1.08 ± 0.049
HJURP (UniProt Q8NCD3),0.967 ± 0.0073,0.975 ± 0.041

# Next entries.

Target,NP40-soluble protein abundance (concentration: 0.1mM),NP40-soluble protein abundance (concentration: 0.5mM)
THOC2 (UniProt Q8NI27),1.2 ± 0.054,1.25 ± 0.13
UniProt Q8NEZ5 and related entries,1.045 ± 0.0043,1.02 ± 0.074
UniProt Q8TDY2 and related entries,1.02 ± 0.041,1.02 ± 0.044
CHAC2 (UniProt Q8WUX2),1.02 ± 0.029,0.988 ± 0.021
UniProt Q92615,1.02 ± 0.021,1.02 ± 0.039
UniProt Q8NI22 and related entries,0.976 ± 0.027,0.997 ± 0.018
UniProt Q8TB36 and related entries,0.988 ± 0.021,0.986 ± 0.049
UniProt Q92784 and related entries,1.006 ± 0.0061,1.009 ± 0.0092
NEK9 (UniProt Q8TD19),1.01 ± 0.015,0.9952 ± 0.0049
SHCBP1 (UniProt Q8NEM2),0.989 ± 0.02,1 ± 0.015
NSMCE1 (UniProt Q8WV22),0.995 ± 0.018,0.9948 ± 0.0074
PCNP (UniProt Q8WW12),1 ± 0.059,1.11 ± 0.18
UniProt Q8ND82 and related entries,0.984 ± 0.018,1.03 ± 0.025
LEO1 (UniProt Q8WVC0),0.98 ± 0.022,1.01 ± 0.047
UniProt Q8NFA0 and related entries,0.99 ± 0.054,0.974 ± 0.015
UniProt Q8WUF8 and related entries,0.9862 ± 0.0097,1.01 ± 0.021
UniProt Q92804 and related entries,1.07 ± 0.097,1.03 ± 0.062
SLC44A1 (UniProt Q8WWI5),1.02 ± 0.012,0.989 ± 0.032
PIEZO1 (UniProt Q92508),1.018 ± 0.0089,0.992 ± 0.02
